Some of the results follow.

Chains of the proteins cited; added tags and fusions are not shown. Lines headed by an entry give the natural chain unless they say otherwise; changes in a name come on top.
UniProt Q7L5Y1: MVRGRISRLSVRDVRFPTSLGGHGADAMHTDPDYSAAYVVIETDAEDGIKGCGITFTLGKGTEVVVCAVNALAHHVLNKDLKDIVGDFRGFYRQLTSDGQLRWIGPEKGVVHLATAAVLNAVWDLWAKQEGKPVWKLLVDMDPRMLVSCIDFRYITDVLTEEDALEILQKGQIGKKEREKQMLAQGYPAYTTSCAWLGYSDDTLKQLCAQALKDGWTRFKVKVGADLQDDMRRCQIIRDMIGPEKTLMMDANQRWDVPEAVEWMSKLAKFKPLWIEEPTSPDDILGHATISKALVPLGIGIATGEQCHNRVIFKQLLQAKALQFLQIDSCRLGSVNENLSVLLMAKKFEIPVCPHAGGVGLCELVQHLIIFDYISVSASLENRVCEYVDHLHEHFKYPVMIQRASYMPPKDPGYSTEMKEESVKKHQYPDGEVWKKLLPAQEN
UniProt Q9NP97, whole entry: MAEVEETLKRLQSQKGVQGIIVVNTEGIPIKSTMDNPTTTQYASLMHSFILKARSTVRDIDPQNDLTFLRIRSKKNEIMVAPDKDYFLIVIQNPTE
UniProt Q13217: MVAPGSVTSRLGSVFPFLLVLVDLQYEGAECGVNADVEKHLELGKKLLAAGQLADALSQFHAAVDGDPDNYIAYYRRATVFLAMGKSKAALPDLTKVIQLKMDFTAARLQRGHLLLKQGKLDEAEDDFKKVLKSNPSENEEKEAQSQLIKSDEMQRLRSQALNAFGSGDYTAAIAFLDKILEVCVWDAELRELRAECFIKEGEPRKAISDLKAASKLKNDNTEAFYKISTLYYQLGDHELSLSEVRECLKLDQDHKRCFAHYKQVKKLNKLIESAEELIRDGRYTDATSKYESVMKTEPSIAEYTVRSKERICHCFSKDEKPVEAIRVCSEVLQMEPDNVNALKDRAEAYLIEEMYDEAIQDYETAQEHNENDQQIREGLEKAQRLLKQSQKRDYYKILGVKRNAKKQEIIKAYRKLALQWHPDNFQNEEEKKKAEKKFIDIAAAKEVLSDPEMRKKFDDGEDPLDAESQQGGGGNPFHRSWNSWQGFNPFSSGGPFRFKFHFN
UniProt P98172: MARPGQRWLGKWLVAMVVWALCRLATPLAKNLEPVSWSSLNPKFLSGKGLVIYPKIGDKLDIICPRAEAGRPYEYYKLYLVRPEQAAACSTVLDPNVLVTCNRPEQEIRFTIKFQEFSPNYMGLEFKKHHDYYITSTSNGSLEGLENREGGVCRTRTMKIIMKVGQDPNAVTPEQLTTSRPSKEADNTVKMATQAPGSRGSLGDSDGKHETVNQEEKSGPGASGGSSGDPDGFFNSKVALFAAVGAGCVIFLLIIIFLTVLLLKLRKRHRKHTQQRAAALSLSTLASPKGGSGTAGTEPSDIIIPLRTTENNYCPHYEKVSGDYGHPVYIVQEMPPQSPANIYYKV
UniProt Q05193: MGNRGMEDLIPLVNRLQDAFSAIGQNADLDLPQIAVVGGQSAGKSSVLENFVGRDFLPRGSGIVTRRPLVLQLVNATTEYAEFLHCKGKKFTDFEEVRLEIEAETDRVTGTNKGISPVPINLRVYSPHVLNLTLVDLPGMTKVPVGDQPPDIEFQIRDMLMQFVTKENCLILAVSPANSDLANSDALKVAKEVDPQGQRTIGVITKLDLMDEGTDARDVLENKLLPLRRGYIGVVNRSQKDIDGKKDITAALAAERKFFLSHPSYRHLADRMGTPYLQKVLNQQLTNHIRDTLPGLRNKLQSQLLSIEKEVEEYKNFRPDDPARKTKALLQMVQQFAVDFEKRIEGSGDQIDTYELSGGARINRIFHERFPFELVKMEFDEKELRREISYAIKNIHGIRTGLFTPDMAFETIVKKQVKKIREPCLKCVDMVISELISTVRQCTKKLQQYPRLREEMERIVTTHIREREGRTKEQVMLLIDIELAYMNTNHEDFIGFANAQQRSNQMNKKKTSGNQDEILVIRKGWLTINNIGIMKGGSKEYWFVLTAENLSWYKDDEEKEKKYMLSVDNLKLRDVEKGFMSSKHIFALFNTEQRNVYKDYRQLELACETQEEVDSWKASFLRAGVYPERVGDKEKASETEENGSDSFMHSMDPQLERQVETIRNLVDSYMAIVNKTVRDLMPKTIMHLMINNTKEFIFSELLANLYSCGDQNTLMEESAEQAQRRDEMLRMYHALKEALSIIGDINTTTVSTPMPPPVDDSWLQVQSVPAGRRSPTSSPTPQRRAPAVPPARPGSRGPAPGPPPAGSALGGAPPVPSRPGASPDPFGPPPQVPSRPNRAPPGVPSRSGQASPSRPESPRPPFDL
UniProt O60739, whole entry: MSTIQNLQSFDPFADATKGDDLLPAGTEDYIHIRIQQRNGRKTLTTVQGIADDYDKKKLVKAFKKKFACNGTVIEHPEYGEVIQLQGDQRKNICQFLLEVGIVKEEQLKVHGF
UniProt Q6Y2X3: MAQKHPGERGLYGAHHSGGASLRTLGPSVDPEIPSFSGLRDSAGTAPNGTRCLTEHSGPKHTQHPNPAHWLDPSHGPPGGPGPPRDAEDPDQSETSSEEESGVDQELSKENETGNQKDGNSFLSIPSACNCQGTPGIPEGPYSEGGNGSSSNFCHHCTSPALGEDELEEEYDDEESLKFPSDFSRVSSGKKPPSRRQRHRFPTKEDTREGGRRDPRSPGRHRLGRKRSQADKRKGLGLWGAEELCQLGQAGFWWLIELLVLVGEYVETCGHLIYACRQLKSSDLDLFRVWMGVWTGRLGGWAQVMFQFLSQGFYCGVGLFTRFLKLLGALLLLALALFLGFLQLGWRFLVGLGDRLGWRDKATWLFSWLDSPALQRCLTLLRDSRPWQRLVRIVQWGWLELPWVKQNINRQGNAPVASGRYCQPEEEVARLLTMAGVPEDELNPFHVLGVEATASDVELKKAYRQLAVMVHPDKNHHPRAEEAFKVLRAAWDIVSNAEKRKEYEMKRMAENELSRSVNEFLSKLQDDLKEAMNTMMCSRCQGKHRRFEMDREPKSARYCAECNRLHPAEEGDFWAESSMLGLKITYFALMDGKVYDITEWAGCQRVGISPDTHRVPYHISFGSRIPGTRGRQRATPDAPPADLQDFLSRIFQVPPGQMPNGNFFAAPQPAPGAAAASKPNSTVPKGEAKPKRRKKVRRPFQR
UniProt Q9Y262, whole entry: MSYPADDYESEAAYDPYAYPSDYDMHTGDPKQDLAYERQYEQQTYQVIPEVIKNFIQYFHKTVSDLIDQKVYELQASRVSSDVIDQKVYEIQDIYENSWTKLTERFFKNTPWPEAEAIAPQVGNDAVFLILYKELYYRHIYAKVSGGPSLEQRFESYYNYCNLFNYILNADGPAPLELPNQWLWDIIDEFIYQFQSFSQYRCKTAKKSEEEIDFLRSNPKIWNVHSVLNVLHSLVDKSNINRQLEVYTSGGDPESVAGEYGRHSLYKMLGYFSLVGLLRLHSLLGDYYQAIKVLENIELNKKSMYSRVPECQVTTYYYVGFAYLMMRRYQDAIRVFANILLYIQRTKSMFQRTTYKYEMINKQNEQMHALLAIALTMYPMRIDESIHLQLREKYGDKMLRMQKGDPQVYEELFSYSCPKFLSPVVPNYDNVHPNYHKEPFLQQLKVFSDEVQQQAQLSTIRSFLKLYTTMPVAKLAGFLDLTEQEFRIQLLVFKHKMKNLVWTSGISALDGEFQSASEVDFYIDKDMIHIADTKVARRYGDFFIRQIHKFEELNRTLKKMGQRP
UniProt P11678: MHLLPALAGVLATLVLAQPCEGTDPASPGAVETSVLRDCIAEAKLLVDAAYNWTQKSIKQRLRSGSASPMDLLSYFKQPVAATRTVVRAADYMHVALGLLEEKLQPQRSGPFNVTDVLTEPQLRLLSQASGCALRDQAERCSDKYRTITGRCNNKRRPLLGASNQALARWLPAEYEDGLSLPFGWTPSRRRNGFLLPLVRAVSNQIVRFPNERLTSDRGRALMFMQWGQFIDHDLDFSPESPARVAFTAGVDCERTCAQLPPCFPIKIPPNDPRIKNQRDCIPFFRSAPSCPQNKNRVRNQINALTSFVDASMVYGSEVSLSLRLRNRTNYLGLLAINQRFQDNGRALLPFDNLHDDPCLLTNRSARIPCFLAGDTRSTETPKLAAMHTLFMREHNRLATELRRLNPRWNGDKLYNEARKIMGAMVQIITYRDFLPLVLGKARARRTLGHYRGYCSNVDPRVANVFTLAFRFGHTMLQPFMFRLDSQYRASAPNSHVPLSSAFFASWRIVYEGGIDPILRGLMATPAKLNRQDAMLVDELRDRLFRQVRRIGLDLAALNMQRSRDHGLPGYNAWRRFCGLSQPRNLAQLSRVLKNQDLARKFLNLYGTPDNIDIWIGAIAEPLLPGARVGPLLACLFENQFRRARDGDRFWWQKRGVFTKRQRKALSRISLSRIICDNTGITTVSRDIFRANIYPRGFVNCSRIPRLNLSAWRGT
UniProt Q16254: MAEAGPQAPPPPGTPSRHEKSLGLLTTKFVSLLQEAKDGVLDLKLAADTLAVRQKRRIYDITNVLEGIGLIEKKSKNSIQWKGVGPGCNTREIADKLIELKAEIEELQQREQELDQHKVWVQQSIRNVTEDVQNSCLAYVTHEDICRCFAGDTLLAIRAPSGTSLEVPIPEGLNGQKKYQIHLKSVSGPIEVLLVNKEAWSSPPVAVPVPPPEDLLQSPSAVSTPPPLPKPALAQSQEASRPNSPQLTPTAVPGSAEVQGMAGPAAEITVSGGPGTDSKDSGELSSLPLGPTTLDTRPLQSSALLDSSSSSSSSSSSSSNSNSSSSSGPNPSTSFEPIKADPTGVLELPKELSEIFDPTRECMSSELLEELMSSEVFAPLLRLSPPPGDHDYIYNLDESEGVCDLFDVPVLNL
UniProt Q13216, whole entry: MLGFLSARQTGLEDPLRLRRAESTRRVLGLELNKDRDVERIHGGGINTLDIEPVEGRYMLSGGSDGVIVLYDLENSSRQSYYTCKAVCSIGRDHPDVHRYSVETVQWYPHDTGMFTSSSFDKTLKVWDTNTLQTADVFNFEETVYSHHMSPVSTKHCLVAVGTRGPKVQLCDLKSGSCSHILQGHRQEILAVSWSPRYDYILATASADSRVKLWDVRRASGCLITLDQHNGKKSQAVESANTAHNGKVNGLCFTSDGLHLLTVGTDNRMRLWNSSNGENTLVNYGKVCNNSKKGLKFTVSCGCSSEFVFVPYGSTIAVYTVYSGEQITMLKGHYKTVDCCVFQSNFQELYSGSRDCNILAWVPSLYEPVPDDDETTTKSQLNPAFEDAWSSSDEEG
UniProt O43237, whole entry: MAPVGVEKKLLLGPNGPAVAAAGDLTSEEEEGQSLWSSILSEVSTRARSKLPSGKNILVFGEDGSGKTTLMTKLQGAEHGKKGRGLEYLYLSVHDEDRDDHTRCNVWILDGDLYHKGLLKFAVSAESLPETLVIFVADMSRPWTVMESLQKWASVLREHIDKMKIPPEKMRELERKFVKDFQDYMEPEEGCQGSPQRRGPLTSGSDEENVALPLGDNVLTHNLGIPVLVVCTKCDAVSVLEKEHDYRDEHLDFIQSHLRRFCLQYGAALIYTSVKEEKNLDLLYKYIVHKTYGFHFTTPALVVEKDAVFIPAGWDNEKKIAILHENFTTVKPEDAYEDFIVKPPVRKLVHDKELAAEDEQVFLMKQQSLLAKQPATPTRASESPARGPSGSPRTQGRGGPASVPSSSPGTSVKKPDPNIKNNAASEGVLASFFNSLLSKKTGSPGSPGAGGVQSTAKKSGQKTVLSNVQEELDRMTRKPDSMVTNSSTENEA
UniProt Q8IYB7: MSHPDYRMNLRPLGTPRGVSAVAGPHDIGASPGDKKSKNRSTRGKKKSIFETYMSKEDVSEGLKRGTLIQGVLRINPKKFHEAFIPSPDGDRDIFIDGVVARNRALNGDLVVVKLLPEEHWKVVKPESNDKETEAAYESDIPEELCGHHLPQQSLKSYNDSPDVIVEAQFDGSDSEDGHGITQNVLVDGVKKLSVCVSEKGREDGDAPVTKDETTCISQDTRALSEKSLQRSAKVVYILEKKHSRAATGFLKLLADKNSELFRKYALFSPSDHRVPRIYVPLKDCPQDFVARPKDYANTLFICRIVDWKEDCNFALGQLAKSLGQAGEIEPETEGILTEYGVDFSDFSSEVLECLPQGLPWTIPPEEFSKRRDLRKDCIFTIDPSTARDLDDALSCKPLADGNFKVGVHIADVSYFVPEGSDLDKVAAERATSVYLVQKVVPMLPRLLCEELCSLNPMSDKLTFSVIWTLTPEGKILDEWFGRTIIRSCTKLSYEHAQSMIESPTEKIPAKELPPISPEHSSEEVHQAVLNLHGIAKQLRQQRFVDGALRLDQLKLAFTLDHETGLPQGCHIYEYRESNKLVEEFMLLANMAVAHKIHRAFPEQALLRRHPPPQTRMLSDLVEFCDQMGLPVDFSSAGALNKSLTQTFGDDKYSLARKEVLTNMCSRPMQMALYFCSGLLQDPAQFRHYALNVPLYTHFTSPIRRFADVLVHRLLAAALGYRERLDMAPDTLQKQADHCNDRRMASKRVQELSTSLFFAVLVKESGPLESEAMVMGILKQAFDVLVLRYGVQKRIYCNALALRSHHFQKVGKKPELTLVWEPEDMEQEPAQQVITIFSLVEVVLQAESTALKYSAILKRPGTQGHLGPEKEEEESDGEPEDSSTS

Compound in this assay: COc1ccc(Cn2ccc3ccc(C(=O)NO)cc32)cc1
Nature of the assay: dose-dependent thermal stabilisation call (2D-TPP, DLPTP, 10% FDR) (binary (1 = stabilised)); higher = stabilised by the compound. The conditions noted are these: system: HL-60 intact cells; concentration range 0.04-10 µM.
For the target DUS2L (UniProt Q9NX74), the “dose-dependent thermal stabilisation call” value is inactive: 0.
Take DJ-1: the “dose-dependent thermal stabilisation call” value was inactive: 0.
As to ELOVL5 (UniProt Q9NYP7), the “dose-dependent thermal stabilisation call” value is inactive: 0.
On to DNTTIP2 (UniProt Q5QJE6), for which the “dose-dependent thermal stabilisation call” value was inactive: 0.
For ENDOG (UniProt Q14249), the “dose-dependent thermal stabilisation call” value is inactive: 0.
Under ENOSF1 (UniProt Q7L5Y1) stands active: 1.
Regarding DYNLRB1 (UniProt Q9NP97), the “dose-dependent thermal stabilisation call” value is inactive: 0.
EFHD2 (UniProt Q96C19): the “dose-dependent thermal stabilisation call” value is inactive: 0.
Turning to DUSP3 (UniProt P51452), the “dose-dependent thermal stabilisation call” value is inactive: 0.
On to EIF4B (UniProt P23588), for which the “dose-dependent thermal stabilisation call” value is inactive: 0.
On to DSTN (UniProt P60981), for which the “dose-dependent thermal stabilisation call” value was inactive: 0.
Consider ERCC3 (UniProt P19447), for which the “dose-dependent thermal stabilisation call” value was inactive: 0.
DSCR3 (UniProt O14972): the “dose-dependent thermal stabilisation call” value is inactive: 0.
With DNAJC3 (UniProt Q13217), the “dose-dependent thermal stabilisation call” value is inactive: 0.
In the case of EIF2S1 (UniProt P05198) it was inactive: 0; in that of EFNB1 (UniProt P98172), inactive: 0.
Regarding DNM1 (UniProt Q05193), the “dose-dependent thermal stabilisation call” value was inactive: 0.
As to DNAJC10 (UniProt Q8IXB1), the “dose-dependent thermal stabilisation call” value was inactive: 0.
In the case of EIF1B (UniProt O60739), the “dose-dependent thermal stabilisation call” value was inactive: 0.
Consider DPP3 (UniProt Q9NY33), for which the “dose-dependent thermal stabilisation call” value was inactive: 0.
In the case of EIF4G2 (UniProt P78344) it was inactive: 0; in that of EEF1A1 (UniProt P68104), inactive: 0; in that of EIF2B4 (UniProt Q9UI10), inactive: 0.
On to DNAJC14 (UniProt Q6Y2X3), for which the “dose-dependent thermal stabilisation call” value is inactive: 0.
In the case of EIF3L (UniProt Q9Y262), the “dose-dependent thermal stabilisation call” value is inactive: 0.
With EPX (UniProt P11678), the “dose-dependent thermal stabilisation call” value is inactive: 0.
For E2F4 (UniProt Q16254), the “dose-dependent thermal stabilisation call” value is inactive: 0.
Regarding ERCC8 (UniProt Q13216), the “dose-dependent thermal stabilisation call” value is inactive: 0.
In the case of ENTPD5 (UniProt O75356), the “dose-dependent thermal stabilisation call” value is inactive: 0.
For the target EIF3J (UniProt O75822), the “dose-dependent thermal stabilisation call” value is active: 1.
Under EFHA1 (UniProt Q8IYU8) stands inactive: 0.
As to E2F3 (UniProt O00716), the “dose-dependent thermal stabilisation call” value was inactive: 0.
Take DYNC1LI2 (UniProt O43237): the “dose-dependent thermal stabilisation call” value was inactive: 0.
Take DIS3L2 (UniProt Q8IYB7): the “dose-dependent thermal stabilisation call” value is inactive: 0.
On to DKFZP434B0335, for which the “dose-dependent thermal stabilisation call” value was inactive: 0.
On to ERH (UniProt P84090), for which the “dose-dependent thermal stabilisation call” value was inactive: 0.
EAPP (UniProt Q56P03): the “dose-dependent thermal stabilisation call” value was inactive: 0.

The record behind these values is the supplement of paper PMC7666118.
